According to the supplement of paper PMC10849652:
The other results are listed elsewhere or left out.

The chains behind the UniProt entries cited, without tags or fusion partners. Where a name states a change or a piece, a line headed by the entry shows the natural chain unless it says otherwise.
UniProt P06733, whole entry, looked up: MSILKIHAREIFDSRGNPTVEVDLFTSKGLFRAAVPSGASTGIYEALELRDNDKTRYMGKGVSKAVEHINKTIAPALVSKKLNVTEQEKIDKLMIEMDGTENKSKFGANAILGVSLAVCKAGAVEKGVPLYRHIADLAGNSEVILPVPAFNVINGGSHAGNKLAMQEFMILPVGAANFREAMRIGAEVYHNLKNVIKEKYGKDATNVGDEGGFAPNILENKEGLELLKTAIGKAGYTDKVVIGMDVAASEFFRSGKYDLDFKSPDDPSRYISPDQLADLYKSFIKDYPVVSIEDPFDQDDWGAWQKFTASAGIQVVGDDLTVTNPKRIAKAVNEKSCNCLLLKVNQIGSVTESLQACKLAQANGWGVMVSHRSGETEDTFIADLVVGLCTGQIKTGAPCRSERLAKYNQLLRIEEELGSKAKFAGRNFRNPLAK
UniProt Q08426: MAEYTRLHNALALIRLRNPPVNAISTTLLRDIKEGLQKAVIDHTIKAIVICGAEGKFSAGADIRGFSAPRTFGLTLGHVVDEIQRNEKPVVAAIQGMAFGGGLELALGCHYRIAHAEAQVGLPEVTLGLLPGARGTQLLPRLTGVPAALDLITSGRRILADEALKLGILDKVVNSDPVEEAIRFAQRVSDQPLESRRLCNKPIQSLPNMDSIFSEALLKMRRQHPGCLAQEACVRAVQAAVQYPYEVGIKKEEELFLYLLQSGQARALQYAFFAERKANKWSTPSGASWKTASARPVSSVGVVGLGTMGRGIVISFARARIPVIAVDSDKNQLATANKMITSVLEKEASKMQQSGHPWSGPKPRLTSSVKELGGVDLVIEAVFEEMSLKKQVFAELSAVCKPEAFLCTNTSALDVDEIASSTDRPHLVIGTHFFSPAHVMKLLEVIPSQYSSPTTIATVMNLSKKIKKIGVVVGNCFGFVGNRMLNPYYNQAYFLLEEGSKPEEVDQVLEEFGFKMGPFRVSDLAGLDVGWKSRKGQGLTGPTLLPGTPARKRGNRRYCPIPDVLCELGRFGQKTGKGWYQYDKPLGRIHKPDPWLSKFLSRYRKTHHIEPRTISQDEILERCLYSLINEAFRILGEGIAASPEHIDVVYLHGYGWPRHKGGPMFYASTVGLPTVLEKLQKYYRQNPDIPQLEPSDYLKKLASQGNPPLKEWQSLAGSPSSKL
UniProt Q9H9T3: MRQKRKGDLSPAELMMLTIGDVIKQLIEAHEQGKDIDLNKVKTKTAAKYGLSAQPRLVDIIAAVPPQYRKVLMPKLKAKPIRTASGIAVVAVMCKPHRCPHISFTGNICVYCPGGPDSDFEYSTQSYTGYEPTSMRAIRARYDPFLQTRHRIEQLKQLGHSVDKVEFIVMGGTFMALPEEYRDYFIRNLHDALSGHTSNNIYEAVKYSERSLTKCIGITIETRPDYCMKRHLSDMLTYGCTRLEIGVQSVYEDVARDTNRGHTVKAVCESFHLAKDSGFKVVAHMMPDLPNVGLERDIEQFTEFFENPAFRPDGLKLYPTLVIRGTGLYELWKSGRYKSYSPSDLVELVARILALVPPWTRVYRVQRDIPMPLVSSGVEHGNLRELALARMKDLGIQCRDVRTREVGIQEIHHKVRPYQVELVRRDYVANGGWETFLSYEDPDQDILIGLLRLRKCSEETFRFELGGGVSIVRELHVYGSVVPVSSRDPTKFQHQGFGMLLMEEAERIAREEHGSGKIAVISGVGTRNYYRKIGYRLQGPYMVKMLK
UniProt P47813, whole entry, looked up: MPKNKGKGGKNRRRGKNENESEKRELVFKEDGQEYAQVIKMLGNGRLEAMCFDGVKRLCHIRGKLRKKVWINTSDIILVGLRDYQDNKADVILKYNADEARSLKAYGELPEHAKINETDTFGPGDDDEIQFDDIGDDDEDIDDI
UniProt P13929, whole entry, looked up: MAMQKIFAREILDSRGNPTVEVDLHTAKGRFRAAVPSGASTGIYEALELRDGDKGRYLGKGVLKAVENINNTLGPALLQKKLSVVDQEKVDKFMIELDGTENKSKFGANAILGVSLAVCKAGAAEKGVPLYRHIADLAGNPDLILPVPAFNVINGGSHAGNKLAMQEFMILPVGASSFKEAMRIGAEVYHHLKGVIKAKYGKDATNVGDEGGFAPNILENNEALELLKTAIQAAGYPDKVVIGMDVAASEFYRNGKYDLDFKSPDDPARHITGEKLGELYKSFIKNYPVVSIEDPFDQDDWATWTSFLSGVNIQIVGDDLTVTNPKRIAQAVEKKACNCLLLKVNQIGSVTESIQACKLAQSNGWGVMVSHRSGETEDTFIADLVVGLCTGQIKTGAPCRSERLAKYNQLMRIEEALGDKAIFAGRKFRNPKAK
UniProt Q0PNE2: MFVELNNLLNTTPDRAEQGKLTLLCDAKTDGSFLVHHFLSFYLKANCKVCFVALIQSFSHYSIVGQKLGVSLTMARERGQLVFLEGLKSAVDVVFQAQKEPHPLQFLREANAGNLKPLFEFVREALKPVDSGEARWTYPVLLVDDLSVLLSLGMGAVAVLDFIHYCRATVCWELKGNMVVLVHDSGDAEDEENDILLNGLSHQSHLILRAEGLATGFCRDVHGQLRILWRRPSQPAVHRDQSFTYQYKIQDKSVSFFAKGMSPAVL
UniProt O43768: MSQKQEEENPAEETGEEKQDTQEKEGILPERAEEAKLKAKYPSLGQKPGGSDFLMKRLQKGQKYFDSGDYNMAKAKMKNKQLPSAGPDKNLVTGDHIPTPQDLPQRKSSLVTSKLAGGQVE
UniProt P68104, whole entry, looked up: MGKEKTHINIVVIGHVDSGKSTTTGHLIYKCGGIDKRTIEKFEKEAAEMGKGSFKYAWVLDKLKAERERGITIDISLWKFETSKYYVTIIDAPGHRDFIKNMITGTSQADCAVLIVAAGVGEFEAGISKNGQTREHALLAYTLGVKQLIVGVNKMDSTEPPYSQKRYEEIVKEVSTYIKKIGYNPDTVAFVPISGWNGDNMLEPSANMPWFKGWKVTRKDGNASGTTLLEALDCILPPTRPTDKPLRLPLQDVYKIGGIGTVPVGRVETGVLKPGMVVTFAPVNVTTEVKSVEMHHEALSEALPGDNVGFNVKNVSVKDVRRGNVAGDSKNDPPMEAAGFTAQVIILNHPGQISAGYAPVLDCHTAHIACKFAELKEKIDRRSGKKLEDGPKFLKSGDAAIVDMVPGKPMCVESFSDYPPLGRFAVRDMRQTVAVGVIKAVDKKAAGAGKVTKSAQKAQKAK
UniProt Q9GZT9: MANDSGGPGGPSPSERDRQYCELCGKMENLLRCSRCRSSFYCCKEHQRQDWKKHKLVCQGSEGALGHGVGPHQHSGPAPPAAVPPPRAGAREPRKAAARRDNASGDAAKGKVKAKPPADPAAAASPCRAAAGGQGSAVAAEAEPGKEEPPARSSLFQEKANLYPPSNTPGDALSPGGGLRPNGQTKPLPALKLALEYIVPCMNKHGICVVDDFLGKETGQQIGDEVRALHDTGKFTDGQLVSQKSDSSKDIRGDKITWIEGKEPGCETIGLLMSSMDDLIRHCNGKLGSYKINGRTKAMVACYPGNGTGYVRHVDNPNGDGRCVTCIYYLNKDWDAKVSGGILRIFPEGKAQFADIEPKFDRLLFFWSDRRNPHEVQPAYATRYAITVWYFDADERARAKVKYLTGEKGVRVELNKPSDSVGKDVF
UniProt Q14152, whole entry, looked up: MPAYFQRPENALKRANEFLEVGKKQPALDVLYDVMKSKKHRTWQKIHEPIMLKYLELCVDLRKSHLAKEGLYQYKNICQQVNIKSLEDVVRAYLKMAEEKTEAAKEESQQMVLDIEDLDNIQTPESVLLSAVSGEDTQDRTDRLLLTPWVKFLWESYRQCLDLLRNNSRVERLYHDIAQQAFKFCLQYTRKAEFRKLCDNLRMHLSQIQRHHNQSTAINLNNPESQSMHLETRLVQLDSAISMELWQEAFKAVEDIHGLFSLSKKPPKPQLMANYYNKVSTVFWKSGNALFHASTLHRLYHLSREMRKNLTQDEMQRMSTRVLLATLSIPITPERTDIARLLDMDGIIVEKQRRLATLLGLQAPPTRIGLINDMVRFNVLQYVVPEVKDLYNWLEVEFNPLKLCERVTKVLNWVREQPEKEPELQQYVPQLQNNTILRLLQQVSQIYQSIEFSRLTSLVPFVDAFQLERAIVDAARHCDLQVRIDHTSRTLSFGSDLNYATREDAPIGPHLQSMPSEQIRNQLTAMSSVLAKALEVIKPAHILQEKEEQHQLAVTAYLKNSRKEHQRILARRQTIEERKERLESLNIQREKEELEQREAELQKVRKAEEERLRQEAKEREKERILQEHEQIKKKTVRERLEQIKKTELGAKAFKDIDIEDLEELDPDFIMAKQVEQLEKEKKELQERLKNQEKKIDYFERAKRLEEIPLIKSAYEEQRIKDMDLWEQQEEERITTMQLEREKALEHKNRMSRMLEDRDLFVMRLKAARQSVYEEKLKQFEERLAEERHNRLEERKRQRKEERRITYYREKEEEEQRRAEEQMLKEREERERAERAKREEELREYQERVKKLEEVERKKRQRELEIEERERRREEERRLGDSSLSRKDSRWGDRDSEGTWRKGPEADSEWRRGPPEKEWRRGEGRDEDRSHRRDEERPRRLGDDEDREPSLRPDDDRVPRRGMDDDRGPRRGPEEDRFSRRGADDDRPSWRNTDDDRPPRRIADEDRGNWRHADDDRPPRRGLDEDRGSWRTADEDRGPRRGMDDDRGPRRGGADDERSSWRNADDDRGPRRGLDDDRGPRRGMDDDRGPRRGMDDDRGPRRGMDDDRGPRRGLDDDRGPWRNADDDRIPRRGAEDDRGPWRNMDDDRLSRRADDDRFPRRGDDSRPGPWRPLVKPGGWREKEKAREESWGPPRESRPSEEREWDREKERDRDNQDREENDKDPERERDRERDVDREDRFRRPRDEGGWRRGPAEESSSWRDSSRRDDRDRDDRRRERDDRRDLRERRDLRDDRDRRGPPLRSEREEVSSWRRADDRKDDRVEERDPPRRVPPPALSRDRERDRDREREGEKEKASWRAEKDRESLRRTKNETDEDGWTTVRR
UniProt P11171, whole entry, looked up: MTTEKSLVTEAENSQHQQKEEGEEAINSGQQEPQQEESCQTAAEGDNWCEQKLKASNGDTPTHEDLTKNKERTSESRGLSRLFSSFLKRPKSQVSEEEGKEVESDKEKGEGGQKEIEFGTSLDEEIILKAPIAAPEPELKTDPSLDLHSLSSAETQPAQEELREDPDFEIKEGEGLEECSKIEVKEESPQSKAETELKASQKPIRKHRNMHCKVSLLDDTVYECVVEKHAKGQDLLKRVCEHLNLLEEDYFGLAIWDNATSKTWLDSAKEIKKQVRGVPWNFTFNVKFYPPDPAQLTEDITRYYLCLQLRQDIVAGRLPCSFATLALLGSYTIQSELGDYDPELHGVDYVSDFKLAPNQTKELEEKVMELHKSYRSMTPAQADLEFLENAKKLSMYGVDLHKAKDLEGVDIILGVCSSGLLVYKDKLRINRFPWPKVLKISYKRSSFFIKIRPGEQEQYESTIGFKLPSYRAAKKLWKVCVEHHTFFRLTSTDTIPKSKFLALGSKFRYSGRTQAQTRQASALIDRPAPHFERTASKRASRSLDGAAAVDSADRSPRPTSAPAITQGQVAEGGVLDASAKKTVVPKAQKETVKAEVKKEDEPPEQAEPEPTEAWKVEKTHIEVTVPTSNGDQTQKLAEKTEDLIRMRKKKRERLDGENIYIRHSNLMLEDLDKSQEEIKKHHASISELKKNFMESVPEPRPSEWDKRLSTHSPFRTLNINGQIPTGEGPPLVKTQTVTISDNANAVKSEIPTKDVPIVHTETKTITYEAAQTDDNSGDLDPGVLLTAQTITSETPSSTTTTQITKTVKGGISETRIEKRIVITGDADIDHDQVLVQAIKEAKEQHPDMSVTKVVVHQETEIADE
UniProt O15371, whole entry, looked up: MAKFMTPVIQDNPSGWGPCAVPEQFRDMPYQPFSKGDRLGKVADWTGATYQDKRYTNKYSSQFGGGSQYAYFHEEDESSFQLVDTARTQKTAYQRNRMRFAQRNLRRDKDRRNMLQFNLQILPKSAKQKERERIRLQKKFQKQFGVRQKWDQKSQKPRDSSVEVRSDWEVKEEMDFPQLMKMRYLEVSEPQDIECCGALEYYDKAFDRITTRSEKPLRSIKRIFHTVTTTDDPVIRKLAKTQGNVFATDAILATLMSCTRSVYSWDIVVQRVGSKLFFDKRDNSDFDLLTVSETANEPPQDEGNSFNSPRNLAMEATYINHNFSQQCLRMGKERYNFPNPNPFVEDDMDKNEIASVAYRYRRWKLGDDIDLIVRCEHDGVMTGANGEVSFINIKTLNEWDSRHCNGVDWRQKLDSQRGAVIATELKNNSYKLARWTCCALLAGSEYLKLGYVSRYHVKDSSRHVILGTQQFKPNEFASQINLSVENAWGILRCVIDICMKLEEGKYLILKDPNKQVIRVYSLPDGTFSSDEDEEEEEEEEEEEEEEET
UniProt O60573: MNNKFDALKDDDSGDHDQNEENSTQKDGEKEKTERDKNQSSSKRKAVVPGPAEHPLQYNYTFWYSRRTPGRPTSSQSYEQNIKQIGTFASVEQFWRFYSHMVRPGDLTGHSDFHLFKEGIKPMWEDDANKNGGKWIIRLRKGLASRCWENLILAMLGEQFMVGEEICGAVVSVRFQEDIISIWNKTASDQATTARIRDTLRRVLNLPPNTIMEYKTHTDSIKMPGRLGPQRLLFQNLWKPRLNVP

What follows are targets tested with CC1=C(SC2=C1C(=N[C@H](C3=NN=C(N32)C)CC(=O)N)C4=CC=C(C=C4)Cl)C (assay: log2 fold change, soluble protein after heating vs DMSO (PISA); higher = thermal stabilisation; K562 cells, 10 uM, 30 min; active = over 0.2 and 3.5 SD of the protein, either way, in both replicates (recomputed)).
Procedure, shortened: (§1)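 K562 cells at 2×10^6 cells/mL were given 10 μM compound for 30 min. Aliquots then went through 3 min of heating across 48°C-58°C, were pooled, and were extracted in PBS with 0.5% NP-40 at 4°C, and the supernatant after 21,000xg for 90 min was quantified by TMTpro 16plex LC-MS/MS with channel sums equalised. Thermal stability relative to control samples, from duplicates, is given as log2 fold change.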
For ENO1 (UniProt P06733), the log2 fold change was inactive: 0.011.
With EIF2S3 (UniProt P41091) the log2 fold change was inactive: -0.023.
In the case of EEF1A2 (UniProt Q05639), the log2 fold change is reported as inactive: 0.073.
For EHHADH (UniProt Q08426), the log2 fold change was inactive: 0.031.
In the case of ELP3 (UniProt Q9H9T3), the log2 fold change is reported as inactive: 0.042.
For ENO1 isoform 2 (UniProt P06733), the log2 fold change was inactive: 0.226.
For EIF1AX (UniProt P47813), the log2 fold change was inactive: -0.036.
For ENO3 (UniProt P13929), the log2 fold change was inactive: 0.008.
ELP6 (UniProt Q0PNE2) was tested, and the log2 fold change was inactive: 0.03.
In the case of EIF4EBP1 (UniProt Q13541), the log2 fold change is reported as inactive: 0.074.
In the case of EIF4B (UniProt P23588), the log2 fold change is reported as inactive: -0.013.
In the case of ELP2 isoform 6 (UniProt Q6IA86), the log2 fold change is reported as inactive: 0.03.
In the case of ENSA isoform 3 (UniProt O43768), the log2 fold change is reported as inactive: -0.01.
EEF2 (UniProt P13639) was tested, and the log2 fold change was inactive: 0.018.
For EEF1A1 (UniProt P68104), the log2 fold change was inactive: 0.212.
With EGLN1 (UniProt Q9GZT9) the log2 fold change was inactive: 0.06.
For EML3 isoform 2 (UniProt Q32P44), the log2 fold change was inactive: -0.016.
ENOSF1 (UniProt Q7L5Y1) was tested, and the log2 fold change was inactive: 0.138.
For EPB41, A0A2R8Y6D0, the log2 fold change was inactive: 0.058.
For EIF3A (UniProt Q14152), the log2 fold change was inactive: -0.059.
In the case of EMC4 (UniProt Q5J8M3), the log2 fold change is reported as inactive: 0.047.
For EPB41 (UniProt P11171), the log2 fold change was inactive: 0.036.
For EIF3J (UniProt O75822), the log2 fold change was inactive: 0.025.
In the case of ENGASE (UniProt Q8NFI3), the log2 fold change is reported as inactive: 0.028.
With EMC8 (UniProt O43402) the log2 fold change was inactive: 0.061.
In the case of EEF1B2 (UniProt P24534), the log2 fold change is reported as inactive: -0.002.
With EMC10 (UniProt Q5UCC4) the log2 fold change was inactive: 0.041.
In the case of EIF3D (UniProt O15371), the log2 fold change is reported as inactive: -0.036.
EIF4G3 isoform 3 (UniProt O43432) was tested, and the log2 fold change was inactive: 0.021.
In the case of EIF4E2 (UniProt O60573), the log2 fold change is reported as inactive: -0.01.
With EMP3 (UniProt P54852) the log2 fold change was inactive: -0.005.
With EIF3E (UniProt P60228) the log2 fold change was inactive: 0.017.
For ELMOD2 (UniProt Q8IZ81), the log2 fold change was inactive: -0.003.

The targets below were run with CC1=C2C(=CC=C1)N=C(N(C2=O)C3=CC=CC=C3C)CN4C=NC5=C(N=CN=C54)N in the same assay as above.
Procedure, shortened: as §1
In the case of ENO1 (UniProt P06733), the log2 fold change is reported as inactive: 0.013.
For EIF2S3 (UniProt P41091), the log2 fold change was inactive: -0.017.
EEF1A2 (UniProt Q05639) was tested, and the log2 fold change was inactive: 0.075.
For EHHADH (UniProt Q08426), the log2 fold change was inactive: 0.025.
For ELP3 (UniProt Q9H9T3), the log2 fold change was inactive: 0.009.
With ENO1 isoform 2 (UniProt P06733) the log2 fold change was inactive: 0.118.
In the case of EIF1AX (UniProt P47813), the log2 fold change is reported as inactive: -0.014.
In the case of ENO3 (UniProt P13929), the log2 fold change is reported as inactive: -0.049.
ELP6 (UniProt Q0PNE2) was tested, and the log2 fold change was inactive: 0.046.
With EIF4EBP1 (UniProt Q13541) the log2 fold change was inactive: -0.112.
With EIF4B (UniProt P23588) the log2 fold change was inactive: 0.008.
ELP2 isoform 6 (UniProt Q6IA86) was tested, and the log2 fold change was inactive: 0.029.
ENSA isoform 3 (UniProt O43768) was tested, and the log2 fold change was inactive: -0.032.
For EEF2 (UniProt P13639), the log2 fold change was inactive: -0.021.
EEF1A1 (UniProt P68104) was tested, and the log2 fold change was inactive: -0.097.
For EGLN1 (UniProt Q9GZT9), the log2 fold change was inactive: 0.013.
In the case of EML3 isoform 2 (UniProt Q32P44), the log2 fold change is reported as inactive: 0.04.
In the case of ENOSF1 (UniProt Q7L5Y1), the log2 fold change is reported as inactive: 0.156.
For EPB41, A0A2R8Y6D0, the log2 fold change was inactive: -0.003.
With EIF3A (UniProt Q14152) the log2 fold change was inactive: 0.046.
In the case of EMC4 (UniProt Q5J8M3), the log2 fold change is reported as inactive: -0.05.
In the case of EPB41 (UniProt P11171), the log2 fold change is reported as inactive: 0.003.
With EIF3J (UniProt O75822) the log2 fold change was inactive: -0.004.
With ENGASE (UniProt Q8NFI3) the log2 fold change was inactive: 0.135.
In the case of EMC8 (UniProt O43402), the log2 fold change is reported as inactive: 0.028.
With EEF1B2 (UniProt P24534) the log2 fold change was inactive: 0.036.
For EMC10 (UniProt Q5UCC4), the log2 fold change was inactive: 0.065.
For EIF3D (UniProt O15371), the log2 fold change was inactive: 0.036.
For EIF4G3 isoform 3 (UniProt O43432), the log2 fold change was inactive: 0.184.
EIF4E2 (UniProt O60573) was tested, and the log2 fold change was inactive: -0.007.
In the case of EMP3 (UniProt P54852), the log2 fold change is reported as inactive: -0.001.
For EIF3E (UniProt P60228), the log2 fold change was inactive: -0.005.
In the case of ELMOD2 (UniProt Q8IZ81), the log2 fold change is reported as inactive: 0.051.

Each target was assayed with Cc1sc2c(c1C)C(c1ccc(Cl)cc1)=N[C@@H](CC(=O)OC(C)(C)C)c1nnc(C)n1-2 in the same assay as above.
Procedure, shortened: as §1
In the case of ENO1 (UniProt P06733), the log2 fold change is reported as inactive: 0.007.
For EIF2S3 (UniProt P41091), the log2 fold change was inactive: 0.054.
With EEF1A2 (UniProt Q05639) the log2 fold change was inactive: -0.019.
EHHADH (UniProt Q08426) was tested, and the log2 fold change was inactive: -0.02.
For ELP3 (UniProt Q9H9T3), the log2 fold change was inactive: -0.051.
In the case of ENO1 isoform 2 (UniProt P06733), the log2 fold change is reported as inactive: 0.008.
With EIF1AX (UniProt P47813) the log2 fold change was inactive: 0.003.
With ENO3 (UniProt P13929) the log2 fold change was inactive: -0.052.
ELP6 (UniProt Q0PNE2) was tested, and the log2 fold change was inactive: -0.012.
In the case of EIF4EBP1 (UniProt Q13541), the log2 fold change is reported as inactive: -0.056.
With EIF4B (UniProt P23588) the log2 fold change was inactive: 0.006.
For ELP2 isoform 6 (UniProt Q6IA86), the log2 fold change was inactive: -0.012.
ENSA isoform 3 (UniProt O43768) was tested, and the log2 fold change was inactive: 0.001.
For EEF2 (UniProt P13639), the log2 fold change was inactive: -0.006.
For EEF1A1 (UniProt P68104), the log2 fold change was inactive: 0.125.
In the case of EGLN1 (UniProt Q9GZT9), the log2 fold change is reported as inactive: 0.008.
EML3 isoform 2 (UniProt Q32P44) was tested, and the log2 fold change was inactive: 0.038.
With ENOSF1 (UniProt Q7L5Y1) the log2 fold change was inactive: -0.012.
With EPB41, A0A2R8Y6D0 the log2 fold change was inactive: 0.035.
For EIF3A (UniProt Q14152), the log2 fold change was inactive: 0.09.
With EMC4 (UniProt Q5J8M3) the log2 fold change was inactive: -0.038.
EPB41 (UniProt P11171) was tested, and the log2 fold change was inactive: 0.009.
In the case of EIF3J (UniProt O75822), the log2 fold change is reported as inactive: -0.041.
For ENGASE (UniProt Q8NFI3), the log2 fold change was inactive: -0.004.
In the case of EMC8 (UniProt O43402), the log2 fold change is reported as inactive: -0.029.
With EEF1B2 (UniProt P24534) the log2 fold change was inactive: 0.026.
For EMC10 (UniProt Q5UCC4), the log2 fold change was inactive: -0.024.
With EIF3D (UniProt O15371) the log2 fold change was inactive: 0.094.
EIF4G3 isoform 3 (UniProt O43432) was tested, and the log2 fold change was inactive: 0.038.
With EIF4E2 (UniProt O60573) the log2 fold change was inactive: -0.06.
With EMP3 (UniProt P54852) the log2 fold change was inactive: -0.063.
EIF3E (UniProt P60228) was tested, and the log2 fold change was inactive: 0.104.
For ELMOD2 (UniProt Q8IZ81), the log2 fold change was inactive: -0.065.
